Results deposited as PubChem BioAssay AID1508597 (Cure First, 2020)

Test: 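Survival screen with siRNA in ovarian cancer cells derived from patients, with or without rucaparib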 (primary screen)
Cell system: human ovarian carcinoma lines grown from tumours: OCI-P5x (papillary serous) and OCI-C5x (clear cell)
Reagents: siRNA pool against human genes, 1.25 pmol siRNA per well
Time to read-out: 72 h or 96 h, depending on the cell culture
Treatment: rucaparib 20 µM (about IC30) or vehicle, present until read-out
Measured: 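Luminescent ATP-based viability assay read 72 or 96 h after transfection, depending on culture, given as normalised percent viability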
Scale: viability, normalised: higher = more viable cells remaining
Active means: 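a well counts as a hit if its normalised viability is under 80 percent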
Calls: active = viability under 80%; inactive = viability 80% or more
In all, the deposit lists about 2,100 reagents; below is a part drawn at random. 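Calls flag viability under 80% in either arm, not effects specific to rucaparib; the reference for percent is not stated.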 Not given: the 100% reference.

Gene | rucaparib or vehicle | cell line | technical replicate | viability, normalised (%) | call
ZCWPW1 (zinc finger CW-type and PWWP domain containing 1) | Rucaparib | OCI-C5x (clear cell) | 1 | 46.6 | active
ZCWPW1 (zinc finger CW-type and PWWP domain containing 1) | Rucaparib | OCI-C5x (clear cell) | 2 | 53.8 | active
ZCWPW1 (zinc finger CW-type and PWWP domain containing 1) | Rucaparib | OCI-C5x (clear cell) | 3 | 35.8 | active
ZCWPW1 (zinc finger CW-type and PWWP domain containing 1) | Rucaparib | OCI-P5x (serous) | 1 | 54.4 | active
ZCWPW1 (zinc finger CW-type and PWWP domain containing 1) | Rucaparib | OCI-P5x (serous) | 2 | 54.7 | active
ZCWPW1 (zinc finger CW-type and PWWP domain containing 1) | Rucaparib | OCI-P5x (serous) | 3 | 67 | active
ZCWPW1 (zinc finger CW-type and PWWP domain containing 1) | Vehicle | OCI-C5x (clear cell) | 1 | 33.9 | active
ZCWPW1 (zinc finger CW-type and PWWP domain containing 1) | Vehicle | OCI-C5x (clear cell) | 2 | 32.6 | active
ZCWPW1 (zinc finger CW-type and PWWP domain containing 1) | Vehicle | OCI-C5x (clear cell) | 3 | 41.7 | active
ZCWPW1 (zinc finger CW-type and PWWP domain containing 1) | Vehicle | OCI-P5x (serous) | 1 | 48.4 | active
ZCWPW1 (zinc finger CW-type and PWWP domain containing 1) | Vehicle | OCI-P5x (serous) | 2 | 58.9 | active
ZCWPW1 (zinc finger CW-type and PWWP domain containing 1) | Vehicle | OCI-P5x (serous) | 3 | 58.9 | active
PDE1A (phosphodiesterase 1A) | Rucaparib | OCI-C5x (clear cell) | 1 | 41 | active
PDE1A (phosphodiesterase 1A) | Rucaparib | OCI-C5x (clear cell) | 2 | 33.1 | active
PDE1A (phosphodiesterase 1A) | Rucaparib | OCI-C5x (clear cell) | 3 | 38.9 | active
PDE1A (phosphodiesterase 1A) | Rucaparib | OCI-P5x (serous) | 1 | 55.8 | active
PDE1A (phosphodiesterase 1A) | Rucaparib | OCI-P5x (serous) | 2 | 77.2 | active
PDE1A (phosphodiesterase 1A) | Rucaparib | OCI-P5x (serous) | 3 | 64.3 | active
PDE1A (phosphodiesterase 1A) | Vehicle | OCI-C5x (clear cell) | 1 | 32 | active
PDE1A (phosphodiesterase 1A) | Vehicle | OCI-C5x (clear cell) | 2 | 41.1 | active
PDE1A (phosphodiesterase 1A) | Vehicle | OCI-C5x (clear cell) | 3 | 23 | active
PDE1A (phosphodiesterase 1A) | Vehicle | OCI-P5x (serous) | 1 | 75.6 | active
PDE1A (phosphodiesterase 1A) | Vehicle | OCI-P5x (serous) | 2 | 88.8 | inactive
PDE1A (phosphodiesterase 1A) | Vehicle | OCI-P5x (serous) | 3 | 77.1 | active
SLC16A9 | Rucaparib | OCI-C5x (clear cell) | 1 | 36 | active
SLC16A9 | Rucaparib | OCI-C5x (clear cell) | 2 | 35.3 | active
SLC16A9 | Rucaparib | OCI-C5x (clear cell) | 3 | 30.6 | active
SLC16A9 | Rucaparib | OCI-P5x (serous) | 1 | 51.1 | active
SLC16A9 | Rucaparib | OCI-P5x (serous) | 2 | 48.1 | active
SLC16A9 | Rucaparib | OCI-P5x (serous) | 3 | 52.5 | active
SLC16A9 | Vehicle | OCI-C5x (clear cell) | 1 | 23.1 | active
SLC16A9 | Vehicle | OCI-C5x (clear cell) | 2 | 30.2 | active
SLC16A9 | Vehicle | OCI-C5x (clear cell) | 3 | 37.6 | active
SLC16A9 | Vehicle | OCI-P5x (serous) | 1 | 71.8 | active
SLC16A9 | Vehicle | OCI-P5x (serous) | 2 | 64 | active
SLC16A9 | Vehicle | OCI-P5x (serous) | 3 | 95.3 | inactive
PHKB (phosphorylase kinase regulatory subunit beta) | Rucaparib | OCI-C5x (clear cell) | 1 | 47.1 | active
PHKB (phosphorylase kinase regulatory subunit beta) | Rucaparib | OCI-C5x (clear cell) | 2 | 64.9 | active
PHKB (phosphorylase kinase regulatory subunit beta) | Rucaparib | OCI-C5x (clear cell) | 3 | 60.7 | active
PHKB (phosphorylase kinase regulatory subunit beta) | Rucaparib | OCI-P5x (serous) | 1 | 99.4 | inactive
PHKB (phosphorylase kinase regulatory subunit beta) | Rucaparib | OCI-P5x (serous) | 2 | 93.4 | inactive
PHKB (phosphorylase kinase regulatory subunit beta) | Rucaparib | OCI-P5x (serous) | 3 | 49.4 | active
PHKB (phosphorylase kinase regulatory subunit beta) | Vehicle | OCI-C5x (clear cell) | 1 | 58.8 | active
PHKB (phosphorylase kinase regulatory subunit beta) | Vehicle | OCI-C5x (clear cell) | 2 | 43.9 | active
PHKB (phosphorylase kinase regulatory subunit beta) | Vehicle | OCI-C5x (clear cell) | 3 | 39.1 | active
PHKB (phosphorylase kinase regulatory subunit beta) | Vehicle | OCI-P5x (serous) | 1 | 73.2 | active
PHKB (phosphorylase kinase regulatory subunit beta) | Vehicle | OCI-P5x (serous) | 2 | 55 | active
PHKB (phosphorylase kinase regulatory subunit beta) | Vehicle | OCI-P5x (serous) | 3 | 60.4 | active
PRKD1 (protein kinase D1) | Rucaparib | OCI-C5x (clear cell) | 1 | 78.1 | active
PRKD1 (protein kinase D1) | Rucaparib | OCI-C5x (clear cell) | 2 | 60.5 | active
PRKD1 (protein kinase D1) | Rucaparib | OCI-C5x (clear cell) | 3 | 47.9 | active
PRKD1 (protein kinase D1) | Rucaparib | OCI-P5x (serous) | 1 | 103 | inactive
PRKD1 (protein kinase D1) | Rucaparib | OCI-P5x (serous) | 2 | 91.4 | inactive
PRKD1 (protein kinase D1) | Rucaparib | OCI-P5x (serous) | 3 | 72.5 | active
PRKD1 (protein kinase D1) | Vehicle | OCI-C5x (clear cell) | 1 | 54.4 | active
PRKD1 (protein kinase D1) | Vehicle | OCI-C5x (clear cell) | 2 | 64.6 | active
PRKD1 (protein kinase D1) | Vehicle | OCI-C5x (clear cell) | 3 | 47.6 | active
PRKD1 (protein kinase D1) | Vehicle | OCI-P5x (serous) | 1 | 75.7 | active
PRKD1 (protein kinase D1) | Vehicle | OCI-P5x (serous) | 2 | 77.7 | active
PRKD1 (protein kinase D1) | Vehicle | OCI-P5x (serous) | 3 | 74.2 | active

Ordered by “viability, normalised (%)” (low to high): 4 of the entries above
Gene | rucaparib or vehicle | cell line | technical replicate | viability, normalised (%) | call
PHKB (phosphorylase kinase regulatory subunit beta) | Rucaparib | OCI-C5x (clear cell) | 1 | 47.1 | active
SLC16A9 | Vehicle | OCI-P5x (serous) | 2 | 64 | active
SLC16A9 | Vehicle | OCI-P5x (serous) | 1 | 71.8 | active
SLC16A9 | Vehicle | OCI-P5x (serous) | 3 | 95.3 | inactive
